The record followed here is patent US20220056137A1.

For this assay, the target named is cyno PD-L1 (cyno). Kind of assay: BLI (Octet), antibody on AHC biosensor, cyno PD-L1 as analyte.

No constants are given. Whether binding was seen depends on the method and setting.

B1: antibody A15 (antibody, V domains shown)
VH: QLQLQESGPGLVKPSETLSLTCTVSGGSFNRSNYYWGWIRQPPGKGLEWIGSIYYSGSTYYNPSLKSRLTISADTSKTQFSLKRNSVTAADTAVYYCAREDIVVVPAAQPPHFYFGMDVWGQGTTVTVSS
VL: DIQMTQSPSSLSASVGDRVTITCRASQGIRNDLGWYQQKPGKAPKRLIYAASSLQSGVPSRFSGSGSGTEFTLTISSLQPEDFATYYCLQHDSYPLTFGGGTKVEIK
For the molecule B1, the binding entry is given as “no binding (tested: 300 nM)”.
